Reference: article doi:10.1101/2024.01.30.577955

Sequences of proteins named here, by UniProt entry; tags and fusion partners are left off. A change or cut given only in a name is not applied to a line headed by its entry.
UniProt Q96N11, whole entry: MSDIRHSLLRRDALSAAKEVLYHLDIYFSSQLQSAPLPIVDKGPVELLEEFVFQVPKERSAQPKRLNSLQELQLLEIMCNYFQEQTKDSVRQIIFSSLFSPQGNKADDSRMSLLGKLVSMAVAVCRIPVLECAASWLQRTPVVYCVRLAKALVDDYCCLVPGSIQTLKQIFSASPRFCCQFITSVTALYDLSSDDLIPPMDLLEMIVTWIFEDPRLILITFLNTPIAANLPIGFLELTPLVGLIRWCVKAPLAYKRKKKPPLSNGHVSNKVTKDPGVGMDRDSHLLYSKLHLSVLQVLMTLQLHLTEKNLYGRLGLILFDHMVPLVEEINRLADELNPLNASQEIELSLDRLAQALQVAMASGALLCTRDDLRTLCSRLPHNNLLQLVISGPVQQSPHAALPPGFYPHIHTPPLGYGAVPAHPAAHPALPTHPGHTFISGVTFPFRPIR

molecular target: 3xHA-INTS15 (L69A/L72A) (UniProt Q96N11); assay: affinity purification with mass spectrometry

Row | Substance | binding
1 | INTS5 (endogenous) (from UniProt Q6P9B9 1-1019) | no binding
2 | INTS8 (endogenous) (from UniProt Q75QN2 1-995) | no binding
3 | INTS10 (endogenous) (from UniProt Q9NVR2 1-710) | binds

molecular target: 3xHA-INTS15 (M120A/V124A) (UniProt Q96N11); assay: affinity purification with mass spectrometry

Row | Substance | binding
4 | INTS5 (endogenous) (from UniProt Q6P9B9 1-1019) | no binding
5 | INTS8 (endogenous) (from UniProt Q75QN2 1-995) | no binding
6 | INTS10 (endogenous) (from UniProt Q9NVR2 1-710) | binds

molecular target: 3xHA-INTS15 (WT) (UniProt Q96N11); assay: affinity purification with mass spectrometry

Row | Substance | binding
7 | INTS6 (endogenous) (from UniProt Q9UL03 1-887) | binds
8 | INTS2 (endogenous) (from UniProt Q9H0H0 1-1196) | binds
9 | INTS5 (endogenous) (from UniProt Q6P9B9 1-1019) | binds
10 | INTS8 (endogenous) (from UniProt Q75QN2 1-995) | binds
11 | INTS7 (endogenous) (from UniProt Q9NVH2 1-962) | binds
12 | INTS10 (endogenous) (from UniProt Q9NVR2 1-710) | binds

No constants are given. Whether binding was seen depends on the method and setting. In cells and extracts the contact can be indirect. A yes stands for co-enrichment or nearness to the bait. Other partners may have been found. For part of these data: No binding means not detected with the bait.
